{"source": "PubChem BioAssay AID540256", "about": "(National Center for Advancing Translational Sciences (NCATS), 2011)", "note": "Hit rate of the full screen: of about 300,000 compounds, about 3,700 (1.2%) were called active. The shares of active, inactive and inconclusive entries below differ from those in the screen. The call rests on the fitted dose curve; tested in HEK293 cells. Where the call is inconclusive, the potency comes from a doubtful curve fit. On the % scale 0 is the no-effect control and ±100 the full control effect; potency means the concentration at half of the fitted maximal effect.", "data": [{"test": "qHTS for Inhibitors of binding or entry into cells for Lassa Virus; further: nearly all actives have a fitted effect of over 50% in size", "conditions": "Lassa virus pseudotype entry inhibition, cell reporter; activity change, negative = inhibition: at 37.9 µM (top of the series) unless noted", "values": [{"smiles": "CN(C)C(=O)COC(=O)[C@H](Cc1ccccc1)NC(=O)c1ccco1", "Potency": "inconclusive: 4.11 µM [activator, partial curve, poor fit]"}, {"smiles": "O=C(NC1CCCN(Cc2ccc(Cl)cc2)C1)c1cccc(N2CCCC2=O)c1", "note": "(stereo not given)", "activity change, negative = inhibition": "inactive: -4.71%"}, {"smiles": "CCOC(=O)c1ccc(OCC(=O)c2ccc(O)cc2O)cc1", "activity change, negative = inhibition": "inactive: -15%"}, {"smiles": "CCSc1cc(N2CCCC2)nc(-c2cccc(C)c2)n1", "Potency": "inconclusive: 0.708 µM [inhibitor, partial curve, poor fit]"}, {"smiles": "COc1ccc(C(=O)NC(C)CCc2ccccc2)c(O)c1", "note": "(stereo not given)", "Potency": "inconclusive: 22.4 µM [inhibitor, single point]"}, {"smiles": "C=CCn1c(CNc2ccc(C)cc2)nnc1SCC(=O)N/N=C/c1ccc(O)cc1", "activity change, negative = inhibition": "inactive: -15.7%"}, {"smiles": "CCCn1c(N)c(C(=O)CN(C)CC(=O)Nc2cc(C)ccc2C)c(=O)[nH]c1=O", "activity change, negative = inhibition": "inactive: -24.8%"}, {"smiles": "Cc1ccc(S(=O)(=O)NCCc2csc3nc(-c4ccccc4F)nn23)cc1C", "Potency": "inconclusive: 7.94 µM [activator, partial curve, poor fit]"}, {"smiles": "COc1ccc(CN=C2NN=C(c3ccccc3)CS2)cc1", "Potency": "inconclusive: 35.5 µM [inhibitor, single point]"}, {"smiles": "COc1cccc(C(=O)Oc2c(CN3CCOCC3)cc(Cl)c3cccnc23)c1", "Potency": "inconclusive: 20.6 µM [inhibitor, single point]"}, {"smiles": "CC(C)CCN1C(=O)c2ccc(-c3nc4ccccc4c(=O)o3)cc2C1=O", "Potency": "inconclusive: 23.1 µM [inhibitor, single point]"}, {"smiles": "CCn1c(SCC(=O)Nc2nccs2)nnc1-c1ccc(C)cc1", "Potency": "inconclusive: 3.66 µM [inhibitor, partial curve, poor fit]"}, {"smiles": "COC(=O)c1ccc(CSc2nnc(N)s2)cc1", "activity change, negative = inhibition": "inactive: 10.9%"}, {"smiles": "COc1ccccc1-c1cc(C(=O)NCCc2ccccc2)no1", "Potency": "inconclusive: 35.5 µM [inhibitor, single point]"}, {"smiles": "N/C(=N\\OC(=O)c1ccccc1Cl)c1ccccc1", "Potency": "inconclusive: 18.3 µM [inhibitor, single point]"}, {"smiles": "COc1ccccc1C(=O)COC(=O)C1(C)CC1(Cl)Cl", "note": "(stereo not given)", "Potency": "inconclusive: 6.31 µM [activator, single point]"}, {"smiles": "O=c1[nH]c(C2CCN(S(=O)(=O)c3ccc(C(F)(F)F)cc3)CC2)nc2c1nnn2Cc1ccc(F)cc1", "Potency": "inconclusive: 8.91 µM [inhibitor, partial curve, poor fit]"}, {"smiles": "O=C(CSc1n[nH]c(-c2ccncc2)n1)Nc1ccc(Br)cc1", "Potency": "inconclusive: 6.31 µM [activator, single point]"}, {"smiles": "O=C(N/N=C/c1ccccn1)c1ccc([N+](=O)[O-])cc1", "activity change, negative = inhibition": "inactive: 19.8%"}, {"smiles": "CC(C)(C)c1nnc(NC(=O)Nc2ccc(Cl)cc2)s1", "activity change, negative = inhibition": "inactive: -13.6%"}, {"smiles": "COC(=O)c1ccc(CNC(=O)C(NC(=O)c2ccco2)C(C)C)cc1", "note": "(stereo not given)", "activity change, negative = inhibition": "inactive: 3.57% [at 46.1 µM]"}, {"smiles": "CCCN1CCC(Oc2cc(Nc3nc(Nc4cccc(F)c4C(N)=O)c4cc[nH]c4n3)c(OC)cc2Cl)CC1", "Potency": "active: 12.5 µM"}, {"smiles": "Cc1cccc(NC(=O)CSc2nc3ccccc3c3nc(CCc4c(C)n[nH]c4C)nn23)c1", "Potency": "inconclusive: 10 µM [inhibitor, single point]"}, {"smiles": "Oc1ccc(Cl)cc1C=NN1CCCCCC1", "Potency": "inconclusive: 1.12 µM [activator, partial curve]"}, {"smiles": "COC(=O)c1sccc1N/N=C/c1cccc(OC)c1O", "Potency": "inconclusive: 2.51 µM [inhibitor, full curve, poor fit]"}, {"smiles": "Cc1ccc(-c2csc(NC(=O)CSc3ncn(-c4ccccc4)n3)n2)cc1", "Potency": "inconclusive: 7.3 µM [inhibitor, partial curve]"}, {"smiles": "O=C(/C=C/c1ccc(N2CCCCC2)c([N+](=O)[O-])c1)c1ccc(S(=O)(=O)N2CCCC2)cc1", "activity change, negative = inhibition": "inactive: -4.91%"}, {"smiles": "O=C(Nc1ccc(Oc2cccnc2)cc1)c1ccccc1F", "activity change, negative = inhibition": "inactive: 24.5%"}, {"smiles": "COc1ccccc1CN1CCN(C2CCN(C(=O)Nc3ccccc3)CC2)C(=O)C1=O", "activity change, negative = inhibition": "inactive: 18.4% [at 46.1 µM]"}, {"smiles": "O=C(OCCN1C(=O)c2cccc3c(N4CCOCC4)ccc(c23)C1=O)c1ccc(Cl)cc1Cl", "Potency": "inconclusive: 7.08 µM [inhibitor, partial curve]"}, {"smiles": "Nc1ccc(N=Nc2ccc(O)cc2)c(N)n1", "Potency": "inconclusive: 17.8 µM [inhibitor, partial curve]"}, {"smiles": "COc1ccc(N/C(=N/c2nc(C)cc(C)n2)NC(=O)Nc2ccc(Cl)c(Cl)c2)c(OC)c1", "Potency": "inconclusive: 7.94 µM [activator, partial curve, poor fit]"}, {"smiles": "O=C(Nc1nc(COc2ccccc2)cs1)C12CC3CC(CC(C3)C1)C2", "activity change, negative = inhibition": "inactive: -5.19%"}, {"smiles": "O=c1[nH]cnc2c1sc1nc(C(F)F)cc(-c3ccccc3)c12", "activity change, negative = inhibition": "inactive: -13.1%"}, {"smiles": "CCc1cccc(CC)c1NC(=S)NC(C)c1ccccc1", "note": "(stereo not given)", "activity change, negative = inhibition": "inactive: -21.9%"}, {"smiles": "Cc1cccc(OCC(=O)Nc2cc(S(=O)(=O)N3CCOCC3)ccc2N2CCCC2)c1C", "activity change, negative = inhibition": "inactive: -22.4%"}, {"smiles": "COc1cc(CNc2ccc(O)cc2)cc(Br)c1OCc1ccccc1F", "Potency": "inconclusive: 3.16 µM [inhibitor, partial curve, poor fit]"}, {"smiles": "CN(C)c1ccc(C=c2c3ccccc3n3c2c2ccccc2[n+]3C)cc1", "Potency": "active: 7.08 µM"}, {"smiles": "CC(NC(=O)c1cc2ccccc2o1)c1ccccc1", "note": "(stereo not given)", "Potency": "inconclusive: 2.51 µM [inhibitor, partial curve, poor fit]"}, {"smiles": "CCOc1ccccc1Nc1nnc(-c2cc3cc(Cl)ccc3oc2=O)s1", "activity change, negative = inhibition": "inactive: 7.17% [at 46.1 µM]"}, {"smiles": "O=C(CNC(=O)c1ccccc1F)OCc1cc(=O)n2nc(C3CC3)sc2n1", "activity change, negative = inhibition": "inactive: 9.39% [at 46.1 µM]"}, {"smiles": "Nc1nc(SCC(=O)NCCOCCO)nc2sc3c(c12)CCCC3", "activity change, negative = inhibition": "inactive: -11.7%"}, {"smiles": "Cc1cccc(NC(=O)CSCC(=O)N2CCN(Cc3ccc4c(c3)OCO4)CC2)c1", "Potency": "inconclusive: 17.8 µM [activator, single point]"}, {"smiles": "CC(C)CCN(C(=O)Nc1ccc(Cl)cc1)C1CCN(C(C)C)CC1", "Potency": "inconclusive: 10 µM [inhibitor, partial curve, poor fit]"}, {"smiles": "O=C(O)c1ccc(N2C(=O)c3cccnc3C2=O)cc1", "activity change, negative = inhibition": "inactive: -8.21%"}, {"smiles": "O=C(COC(=O)/C=C/c1cccc(F)c1)Nc1ccc2[nH]c(=O)[nH]c2c1", "activity change, negative = inhibition": "inactive: -19.4%"}, {"smiles": "COCCN(C(=O)COC(=O)c1ccccc1Cc1ccccc1)c1c(N)n(Cc2ccccc2)c(=O)[nH]c1=O", "Potency": "inconclusive: 8.91 µM [inhibitor, partial curve]"}, {"smiles": "O=C(O)CCC(=O)N1CCN(c2cccc(Cl)c2)CC1", "Potency": "inconclusive: 3.98 µM [activator, full curve, poor fit]"}, {"smiles": "O=C1CN(C(=O)COc2ccc(Cl)cc2)C(c2ccc(F)cc2)c2cc(Br)ccc2N1", "note": "(stereo not given)", "Potency": "inconclusive: 35.5 µM [inhibitor, single point]"}, {"smiles": "CC(=O)C1=C(c2ccc(Cl)c(Cl)c2)N(C(C)=O)n2cnnc2S1", "Potency": "inconclusive: 2.51 µM [inhibitor, full curve, poor fit]"}, {"smiles": "O=C(Nc1ccc2c(c1)OCO2)c1cnc2n(c1=O)CCS2", "activity change, negative = inhibition": "inactive: -1.65%"}, {"smiles": "CCOC(=O)c1nc2cc3n(c(C)c-2c1C)C(C)C(C)=C3C", "note": "(stereo not given)", "activity change, negative = inhibition": "inactive: 12.2%"}, {"smiles": "Cc1ccc(C(=O)N2N=C(c3ccc(Br)cc3)CC2c2ccccc2O)cc1", "note": "(stereo not given)", "Potency": "active: 12.6 µM"}, {"smiles": "COc1cc(N2CCCC2)c(OC)cc1/C=C(/C#N)c1cccc(Br)c1", "Potency": "inconclusive: 28.2 µM [inhibitor, partial curve, poor fit]"}, {"smiles": "COc1ccc(C(=O)c2cc3cccc(OC)c3o2)cc1", "Potency": "inconclusive: 31.6 µM [inhibitor, single point]"}, {"smiles": "Cn1c(O)c(C=NCCN2CCNCC2)c(=O)[nH]c1=O", "Potency": "inconclusive: 14.1 µM [inhibitor, single point]"}, {"smiles": "CCOC(=O)CC1=NN(c2ccccc2)C(=O)/C1=C\\c1ccc(OC)cc1OC", "Potency": "inconclusive: 3.55 µM [inhibitor, partial curve, poor fit]"}, {"smiles": "COc1ccc2ccccc2c1C1NC(=O)c2ccccc2N1", "note": "(stereo not given)", "Potency": "inconclusive: 3.55 µM [inhibitor, full curve]"}, {"smiles": "CC(C)(C)c1csc(NC(=O)C2=COCCO2)n1", "activity change, negative = inhibition": "inactive: -25.8%"}, {"smiles": "CCCCN(CCCC)CCNC(=O)CN1C(=O)COc2ccc(S(=O)(=O)N3CCC(C)CC3)cc21", "Potency": "inconclusive: 31.6 µM [inhibitor, single point]"}, {"smiles": "CCOC(=O)c1ccc(NC(=O)CC2C(=O)N(c3ccc(C)cc3)C(=O)N2C2CCCC2)cc1", "note": "(stereo not given)", "Potency": "inconclusive: 3.55 µM [inhibitor, partial curve, poor fit]"}, {"smiles": "CC1CCN(S(=O)(=O)c2cccc(C(=O)NC3CCCCC3)c2)CC1", "Potency": "inconclusive: 3.16 µM [inhibitor, partial curve, poor fit]"}, {"smiles": "CCOCCOC(=O)c1cccc(NC(=O)OCC)c1", "Potency": "inconclusive: 4.61 µM [activator, partial curve]"}, {"smiles": "COC(=O)[C@H](C)NC(=O)NC1CCN(Cc2ccccc2)CC1", "Potency": "inconclusive: 1.16 µM [inhibitor, partial curve, poor fit]"}, {"smiles": "Cc1ccccc1NC(=O)CCNC(=O)Cn1ccc2ccccc2c1=O", "activity change, negative = inhibition": "inactive: 12.1% [at 46.1 µM]"}, {"smiles": "CCS(=O)(=O)c1oc(-c2ccc(F)cc2)nc1S(=O)(=O)c1ccc(Br)cc1", "Potency": "inconclusive: 5.62 µM [inhibitor, full curve, poor fit]"}, {"smiles": "CC(Nc1ccc(-c2nc(-c3ccco3)no2)cc1[N+](=O)[O-])c1ccccc1", "note": "(stereo not given)", "Potency": "inconclusive: 3.98 µM [activator, partial curve, poor fit]"}, {"smiles": "CN(C(=O)CSc1nc2ccc(NC(=O)COc3ccccc3Cl)cc2s1)c1ccccc1", "activity change, negative = inhibition": "inactive: 16.9% [at 46.1 µM]"}, {"smiles": "CCCOc1cccc(-c2nc3ccccc3c(=O)o2)c1", "Potency": "inconclusive: 35.5 µM [inhibitor, single point]"}, {"smiles": "CC(C)C(=O)OCCN=C1NS(=O)(=O)c2ccccc21", "Potency": "inconclusive: 0.73 µM [activator, full curve, poor fit]"}]}]}
